Results on three substances are retold here after article PMC10347873.

The chains behind the UniProt entries cited, without tags or fusion partners. Residues count along the entry.
UniProt P16070, residues 21-742: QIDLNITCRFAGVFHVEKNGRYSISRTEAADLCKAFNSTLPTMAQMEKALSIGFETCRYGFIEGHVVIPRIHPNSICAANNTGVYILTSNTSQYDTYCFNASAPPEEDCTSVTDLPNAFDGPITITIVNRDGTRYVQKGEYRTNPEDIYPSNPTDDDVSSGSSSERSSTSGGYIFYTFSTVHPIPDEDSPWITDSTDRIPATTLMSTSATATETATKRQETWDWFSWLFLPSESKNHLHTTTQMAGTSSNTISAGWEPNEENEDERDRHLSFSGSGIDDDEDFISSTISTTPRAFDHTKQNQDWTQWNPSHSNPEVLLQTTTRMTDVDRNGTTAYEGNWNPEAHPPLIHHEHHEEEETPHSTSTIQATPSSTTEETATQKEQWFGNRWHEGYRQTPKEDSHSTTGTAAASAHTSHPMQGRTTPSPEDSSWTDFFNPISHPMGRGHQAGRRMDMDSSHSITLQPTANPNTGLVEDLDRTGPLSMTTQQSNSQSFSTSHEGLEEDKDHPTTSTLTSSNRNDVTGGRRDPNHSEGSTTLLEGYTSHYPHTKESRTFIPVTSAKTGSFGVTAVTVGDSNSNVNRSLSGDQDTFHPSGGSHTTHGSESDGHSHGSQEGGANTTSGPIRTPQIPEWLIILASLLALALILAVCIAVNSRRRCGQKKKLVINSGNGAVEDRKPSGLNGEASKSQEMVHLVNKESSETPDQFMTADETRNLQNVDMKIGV
UniProt O95398: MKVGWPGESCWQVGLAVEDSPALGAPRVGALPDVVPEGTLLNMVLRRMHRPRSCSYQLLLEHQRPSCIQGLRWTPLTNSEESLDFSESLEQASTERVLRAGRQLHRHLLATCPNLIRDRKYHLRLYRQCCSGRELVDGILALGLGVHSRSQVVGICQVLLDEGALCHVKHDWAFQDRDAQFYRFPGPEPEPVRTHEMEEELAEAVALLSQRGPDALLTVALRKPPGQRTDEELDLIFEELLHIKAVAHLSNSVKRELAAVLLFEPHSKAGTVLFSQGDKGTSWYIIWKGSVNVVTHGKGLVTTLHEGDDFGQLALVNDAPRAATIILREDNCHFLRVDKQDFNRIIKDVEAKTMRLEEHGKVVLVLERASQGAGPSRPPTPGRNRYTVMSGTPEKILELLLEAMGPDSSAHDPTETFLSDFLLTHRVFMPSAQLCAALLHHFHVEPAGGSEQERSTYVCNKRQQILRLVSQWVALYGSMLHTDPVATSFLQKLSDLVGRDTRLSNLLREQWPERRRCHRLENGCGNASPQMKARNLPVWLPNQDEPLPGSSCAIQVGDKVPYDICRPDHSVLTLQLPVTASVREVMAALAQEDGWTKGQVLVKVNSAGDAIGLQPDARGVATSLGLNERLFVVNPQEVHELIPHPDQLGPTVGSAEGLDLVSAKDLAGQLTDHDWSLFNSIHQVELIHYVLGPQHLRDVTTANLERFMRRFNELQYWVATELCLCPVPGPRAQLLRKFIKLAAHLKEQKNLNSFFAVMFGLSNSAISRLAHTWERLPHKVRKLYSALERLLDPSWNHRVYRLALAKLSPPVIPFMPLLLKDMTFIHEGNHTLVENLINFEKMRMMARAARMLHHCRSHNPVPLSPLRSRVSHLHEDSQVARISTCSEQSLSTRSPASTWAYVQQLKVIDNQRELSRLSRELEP
UniProt Q8VCC8: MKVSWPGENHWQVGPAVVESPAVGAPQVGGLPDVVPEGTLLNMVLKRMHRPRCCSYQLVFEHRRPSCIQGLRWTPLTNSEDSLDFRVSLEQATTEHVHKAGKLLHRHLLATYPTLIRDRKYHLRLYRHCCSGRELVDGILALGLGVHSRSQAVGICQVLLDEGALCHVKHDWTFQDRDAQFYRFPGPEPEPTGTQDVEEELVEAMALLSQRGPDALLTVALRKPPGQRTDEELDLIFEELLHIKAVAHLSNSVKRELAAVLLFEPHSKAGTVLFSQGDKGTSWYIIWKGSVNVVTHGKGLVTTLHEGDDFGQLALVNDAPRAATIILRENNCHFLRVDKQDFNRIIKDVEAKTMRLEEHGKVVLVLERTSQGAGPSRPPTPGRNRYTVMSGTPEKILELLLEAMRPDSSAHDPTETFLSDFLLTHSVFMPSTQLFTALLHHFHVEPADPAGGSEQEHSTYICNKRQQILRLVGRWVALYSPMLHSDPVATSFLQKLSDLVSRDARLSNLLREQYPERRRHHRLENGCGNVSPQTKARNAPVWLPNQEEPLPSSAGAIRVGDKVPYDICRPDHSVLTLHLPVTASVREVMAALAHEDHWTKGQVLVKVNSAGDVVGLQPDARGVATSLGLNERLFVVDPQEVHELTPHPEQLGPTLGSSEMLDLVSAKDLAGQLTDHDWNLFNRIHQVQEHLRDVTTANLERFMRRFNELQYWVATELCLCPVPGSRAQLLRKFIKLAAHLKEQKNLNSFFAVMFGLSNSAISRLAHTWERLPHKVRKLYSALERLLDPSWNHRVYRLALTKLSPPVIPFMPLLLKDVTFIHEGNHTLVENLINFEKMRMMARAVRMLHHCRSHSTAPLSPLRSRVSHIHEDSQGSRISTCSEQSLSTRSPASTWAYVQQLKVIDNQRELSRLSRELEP
UniProt Q9EQZ6: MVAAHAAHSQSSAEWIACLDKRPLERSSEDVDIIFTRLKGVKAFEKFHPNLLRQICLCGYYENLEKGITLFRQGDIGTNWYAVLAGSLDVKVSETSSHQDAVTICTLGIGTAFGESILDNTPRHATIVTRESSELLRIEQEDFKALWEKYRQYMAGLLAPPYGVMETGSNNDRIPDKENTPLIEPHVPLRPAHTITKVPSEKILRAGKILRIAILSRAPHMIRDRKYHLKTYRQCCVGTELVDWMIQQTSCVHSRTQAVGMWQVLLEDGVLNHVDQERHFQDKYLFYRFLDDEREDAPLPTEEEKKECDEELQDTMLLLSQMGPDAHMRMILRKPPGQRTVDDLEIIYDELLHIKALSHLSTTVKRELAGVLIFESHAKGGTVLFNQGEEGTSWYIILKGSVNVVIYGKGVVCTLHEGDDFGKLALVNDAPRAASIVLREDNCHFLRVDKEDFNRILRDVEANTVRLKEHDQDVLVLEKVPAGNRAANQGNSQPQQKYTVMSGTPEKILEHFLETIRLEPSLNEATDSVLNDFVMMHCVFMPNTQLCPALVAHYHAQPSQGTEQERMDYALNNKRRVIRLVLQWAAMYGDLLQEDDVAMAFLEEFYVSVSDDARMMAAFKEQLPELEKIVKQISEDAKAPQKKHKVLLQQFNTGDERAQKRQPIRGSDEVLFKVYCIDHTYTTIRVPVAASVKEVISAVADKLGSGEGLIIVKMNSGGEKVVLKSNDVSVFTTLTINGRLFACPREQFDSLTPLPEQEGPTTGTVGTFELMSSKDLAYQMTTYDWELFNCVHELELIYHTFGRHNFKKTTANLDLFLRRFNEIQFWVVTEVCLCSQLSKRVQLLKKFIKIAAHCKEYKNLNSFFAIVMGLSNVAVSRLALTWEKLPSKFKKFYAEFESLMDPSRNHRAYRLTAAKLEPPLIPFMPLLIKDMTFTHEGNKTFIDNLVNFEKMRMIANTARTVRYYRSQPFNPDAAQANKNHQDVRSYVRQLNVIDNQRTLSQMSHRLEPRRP

No constants are given. Whether binding was seen depends on the method and setting. Binding seen in cells or lysates may run through a third protein. Some binding calls cover weakened binding; strength is not graded here.

In test [1] the target is CD44 (human) (human (endogenous in left ventricle tissue)) (UniProt P16070). The test can be described thus: co-IP; lysates of human left ventricle tissue immunoprecipitated with anti-CD44 antibodies, reblotted with anti-Epac 1/2 or anti-CD44; patients with preserved (LVEF > 60%) or compromised (LVEF < 50%) LV contractility.
Test [2] concerns the target T1, CD44 (mouse (endogenous in mouse ventricle and HL-1 myocytes)) (UniProt P15379).
T1 sequence: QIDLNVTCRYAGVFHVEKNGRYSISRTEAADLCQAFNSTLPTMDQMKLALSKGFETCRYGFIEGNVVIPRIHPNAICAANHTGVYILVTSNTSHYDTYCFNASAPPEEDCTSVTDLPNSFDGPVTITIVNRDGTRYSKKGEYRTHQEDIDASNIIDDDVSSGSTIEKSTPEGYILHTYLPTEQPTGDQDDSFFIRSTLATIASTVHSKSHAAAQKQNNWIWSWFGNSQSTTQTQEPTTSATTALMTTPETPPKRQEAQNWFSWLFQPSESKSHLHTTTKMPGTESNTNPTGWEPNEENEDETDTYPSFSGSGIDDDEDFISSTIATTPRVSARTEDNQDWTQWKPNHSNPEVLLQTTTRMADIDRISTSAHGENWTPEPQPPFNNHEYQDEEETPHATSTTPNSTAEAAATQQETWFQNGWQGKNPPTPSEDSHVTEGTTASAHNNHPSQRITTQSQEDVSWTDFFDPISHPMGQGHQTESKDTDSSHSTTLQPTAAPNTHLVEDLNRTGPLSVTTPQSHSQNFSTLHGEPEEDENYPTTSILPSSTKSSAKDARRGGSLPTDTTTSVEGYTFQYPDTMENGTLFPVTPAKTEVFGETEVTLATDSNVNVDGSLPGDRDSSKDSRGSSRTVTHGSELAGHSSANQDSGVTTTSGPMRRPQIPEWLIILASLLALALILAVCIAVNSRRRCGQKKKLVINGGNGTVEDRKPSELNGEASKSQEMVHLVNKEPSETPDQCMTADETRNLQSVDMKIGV
Nature of the test: proximity ligation; in situ in HL-1 myocytes, confocal images; cells treated with osteopontin, isoproterenol or 8-CPT-cAMP.

Test [3] has as its target T1, CD44 (mouse (endogenous in mouse ventricle and HL-1 myocytes)). The test can be described thus: co-IP; lysates of mouse ventricle tissue immunoprecipitated with anti-CD44 antibodies, reblotted with anti-Epac1; wild-type mice without isoproterenol.
Test [4] shares this target. Nature of the test: co-IP; lysates of mouse ventricle tissue immunoprecipitated with anti-CD44 antibodies, reblotted with anti-Epac 1/2, anti-PKAc, anti-PKAIIα or anti-CD44; wild-type mice given isoproterenol 30 mg/kg per day subcutaneously for 48 h or 15 days (PKA subunits: with or without isoproterenol).
For test [5] the target is unchanged. Nature of the test: co-IP; HL-1 myocyte lysates immunoprecipitated with anti-CD44 antibodies, reblotted with anti-Epac1/2, anti-PKAIIα, anti-PKAc and anti-CD44; reverse with anti-Epac1/Epac2, anti-PKAIIα and anti-PKAc; cells treated with osteopontin (100 ng/mL), isoproterenol (10 µmol/L) or 8-CPT-cAMP (100 µmol/L) for 24 h.

For the substance “Epac1 (human) (from UniProt O95398 1-923)”, the binding result in test [1] was “binds”.

As to “exchange protein directly activated by cAMP 1 (Epac1) (from UniProt Q8VCC8 1-918)”, the binding entry is listed as “binds” in test [2], “binds weakly” in test [3], “binds” in test [4] and “binds” in test [5].

For the substance “exchange protein directly activated by cAMP 2 (Epac2) (from UniProt Q9EQZ6 1-1011)”, the binding result in test [4] and in test [5] was “binds weakly” throughout.
